Test results published in doi:10.1101/792705.
No constants are given. Whether binding was seen depends on the method and setting. In cells and extracts the contact can be indirect. Some results given as binding are weak or reduced against the parent protein; the word gives no strength.

Chains of the proteins cited; added tags and fusions are not shown.
UniProt P22366: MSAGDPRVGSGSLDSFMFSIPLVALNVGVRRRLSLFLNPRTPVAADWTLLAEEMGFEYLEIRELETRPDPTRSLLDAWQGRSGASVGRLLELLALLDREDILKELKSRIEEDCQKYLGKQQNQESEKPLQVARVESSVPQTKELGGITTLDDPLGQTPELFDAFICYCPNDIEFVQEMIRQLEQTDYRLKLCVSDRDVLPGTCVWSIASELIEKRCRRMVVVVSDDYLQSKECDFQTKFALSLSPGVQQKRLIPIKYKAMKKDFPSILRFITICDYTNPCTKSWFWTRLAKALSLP

Molecular target: MyD88 (mouse (endogenous in BMDM)) (UniProt P22366)
Experiment: co-IP

| Binder | binding |
| --- | --- |
| IRAK-4 (enzyme, UniProt Q8R4K2 1-459) MNKPLTPSTYIRNLNVGILRKLSDFIDPQEGWKKLAVAIKKPSGDDRYNQFHIRRFEALLQTGKSPTCELLFDWGTTNCTVGDLVDLLVQIELFAPATLLLPDAVPQTVKSLPPREAATVAQTHGPCQEKDRTSVMPMPKLEHSCEPPDSSSPDNRSVESSDTRFHSFSFHELKSITNNFDEQPASAGGNRMGEGGFGVVYKGCVNNTIVAVKKLGAMVEISTEELKQQFDQEIKVMATCQHENLVELLGFSSDSDNLCLVYAYMPNGSLLDRLSCLDGTPPLSWHTRCKVAQGTANGIRFLHENHHIHRDIKSANILLDKDFTAKISDFGLARASARLAQTVMTSRIVGTTAYMAPEALRGEITPKSDIYSFGVVLLELITGLAAVDENREPQLLLDIKEEIEDEEKTIEDYTDEKMSDADPASVEAMYSAASQCLHEKKNRRPDIAKVQQLLQEMSA | binds |
| TLR6 (receptor, UniProt Q9EPW9 28-795) FSNELESMVDYSNRNLTHVPKDLPPRTKALSLSQNSISELRMPDISFLSELRVLRLSHNRIRSLDFHVFLFNQDLEYLDVSHNRLQNISCCPMASLRHLDLSFNDFDVLPVCKEFGNLTKLTFLGLSAAKFRQLDLLPVAHLHLSCILLDLVSYHIKGGETESLQIPNTTVLHLVFHPNSLFSVQVNMSVNALGHLQLSNIKLNDENCQRLMTFLSELTRGPTLLNVTLQHIETTWKCSVKLFQFFWPRPVEYLNIYNLTITERIDREEFTYSETALKSLMIEHVKNQVFLFSKEALYSVFAEMNIKMLSISDTPFIHMVCPPSPSSFTFLNFTQNVFTDSVFQGCSTLKRLQTLILQRNGLKNFFKVALMTKNMSSLETLDVSLNSLNSHAYDRTCAWAESILVLNLSSNMLTGSVFRCLPPKVKVLDLHNNRIMSIPKDVTHLQALQELNVASNSLTDLPGCGAFSSLSVLVIDHNSVSHPSEDFFQSCQNIRSLTAGNNPFQCTCELRDFVKNIGWVAREVVEGWPDSYRCDYPESSKGTALRDFHMSPLSCDTVLLTVTIGATMLVLAVTGAFLCLYFDLPWYVRMLCQWTQTRHRARHIPLEELQRNLQFHAFVSYSEHDSAWVKNELLPNLEKDDIRVCLHERNFVPGKSIVENIINFIEKSYKAIFVLSPHFIQSEWCHYELYFAHHNLFHEGSDNLILILLEPILQNNIPSRYHKLRALMAQRTYLEWPTEKGKRGLFWANLRASFIMKLALVNEDDVKT | no binding |
